Out of some 400,000 compounds screened, about 5,500 (1.4%) were called active. The inconclusive results got no clear call from the source; some entries with a clear call stand among them for comparison. Calls follow the shape of the dose curve; as a rule, active = well fitted cell-killing curve with a large enough effect; inconclusive = small, poorly fitted or top-dose-only effect, or effect the other way; inactive = flat fitted curve, though single readings scatter. Potencies beside an inconclusive call are fits to weak or partial responses and may not hold up. More than one record can exist for a structure, and the calls need not agree.
Test: qHTS assay for MDR1-selective chemotherapeutics: Primary screen using the parental adenocarcinoma cell KB-3-1; also: nearly all actives have a fitted effect of over 60% in size
Details: KB-3-1 viability, CellTiter-Glo ATP luminescence, 72 h; activity change, negative = cytotoxic: at 46.1 µM (top of the series)
Outline: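 Cytotoxicity in the drug-sensitive parental line KB-3-1 was scored as loss of CellTiter-Glo luminescence following 72 h incubation with compound. Values come from curve fitting of normalized concentration-response data.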
% is scaled to controls: 0 for no effect and ±100 for the full control effect; potency is read from the fitted curve at half-maximal effect.

Question: With `CC(=O)Nc1cccc(-c2ccnc3c2CC(C(=O)NCc2cccnc2)O3)c1` (configuration not stated) as the molecule, how does the Potency read?
Answer: inconclusive: 20.6 µM [cytotoxic, single point]

Question: Which Potency does the source give for `C[C@@H]1CN([C@H](C)CO)C(=O)c2c(c3ccccc3n2C)-c2ccccc2CO[C@H]1CN(C)Cc1ccccc1` here?
Answer: inconclusive: 20.6 µM [cytotoxic, single point]

Question: For `O=C(Nc1nnc(C2CC2)s1)c1ccccn1`, which Potency is on record?
Answer: inconclusive: 29.1 µM [cytotoxic, single point]

Question: With `COc1ccccc1NC(=O)Cn1nc(-c2ccncc2)nc1SCC(=O)NC1CCCC1` as the molecule, how does the Potency read?
Answer: inconclusive: 29.1 µM [cytotoxic, single point]

Question: Which “activity change, negative = cytotoxic” value does the source give for `O=C(NCc1ccccc1)c1ccc(CS(=O)Cc2ccc(Cl)cc2)o1` (configuration not stated) here?
Answer: inactive: -0.337%

Question: Which “activity change, negative = cytotoxic” value does the source give for `Cc1c(C(=O)Nc2ccc(F)cc2)oc2ccc(S(=O)(=O)N3CCC4(CC3)OCCO4)cc12` here?
Answer: inactive: 0.784%

Question: With `COC(=O)CSc1nnc(CCc2ccccc2)n1C` as the molecule, how does the Potency read?
Answer: inconclusive: 0.58 µM [rising, partial curve, poor fit]

Question: For `CN(c1cccc(NC(=O)c2ccc(C(C)(C)C)cc2)c1)S(C)(=O)=O`, which Potency is on record?
Answer: inconclusive: 8.2 µM [cytotoxic, partial curve]

Question: For `COc1ccc(NC(=O)CSc2nc3c(c(=O)[nH]2)CCC3)cc1`, which “activity change, negative = cytotoxic” value is on record?
Answer: inactive: -12.2%

Question: With `COc1ccc(-c2nnc(Nc3nc4c(OC)cccc4s3)o2)cc1` as the molecule, how does the Potency read?
Answer: inconclusive: 29.1 µM [cytotoxic, single point]

Question: With `CCOC(=O)C1=C(C)NC2=C(C(=O)CC(c3cccs3)C2)C1c1cccs1` (configuration not stated) as the molecule, how does the Potency read?
Answer: active: 5.8 µM

Question: With `COc1ccc(Cc2nnc(NC(=O)C3CC(=O)N(c4ccccc4)C3)s2)cc1OC` (configuration not stated) as the molecule, how does the “activity change, negative = cytotoxic” value read?
Answer: inactive: 15.3%

Question: Which Potency does the source give for `Cc1ccc2c(c1)[C@H]1[C@H](CO2)[C@H](c2ccccc2)[C@]2(C)C(=O)Nc3cc(F)c(F)cc3C(=O)N12` here?
Answer: inconclusive: 29.1 µM [cytotoxic, single point]

Question: With `CCOc1ccc(CCN2C(=O)C(=O)N([C@@H](CC(C)C)CN3CCC[C@H]3CN3C(=O)C(=O)NC[C@@H]3CC(C)C)C[C@@H]2Cc2ccc(O)cc2)cc1` as the molecule, how does the Potency read?
Answer: inconclusive: 29.1 µM [cytotoxic, single point]

Question: Which Potency does the source give for `Cc1ccc(S(=O)(=O)NC(C)(C)CN2CCC(Cc3ccccc3)CC2)cc1` here?
Answer: inconclusive: 29.1 µM [cytotoxic, partial curve, poor fit]

Question: For `Cc1ccc(C(=O)Nc2ccccc2-c2ccccc2)cc1S(=O)(=O)Nc1ccccc1`, which Potency is on record?
Answer: inconclusive: 18.4 µM [cytotoxic, single point]

Question: For `COc1ccccc1N1CCN(C(=O)c2cc3c(=O)oc4ccc(C)cc4c3s2)CC1`, which “activity change, negative = cytotoxic” value is on record?
Answer: inactive: 8.64%

Question: Which Potency does the source give for `NNC(=O)c1[nH]c2ccc(Cl)cc2c1-c1ccccc1` here?
Answer: inconclusive: 25.9 µM [cytotoxic, single point]

Question: For `COc1ccc(OC)c(S(=O)(=O)Nc2cccc(-c3ccc(N4CCCCCC4)nn3)c2)c1`, which Potency is on record?
Answer: inconclusive: 29.1 µM [cytotoxic, single point]

Question: Which Potency does the source give for `Cc1ccccc1C(=O)N1CCC(C(=O)Nc2ccc(C(C)C)cc2)CC1` here?
Answer: inconclusive: 18.4 µM [cytotoxic, single point]

Question: Which Potency does the source give for `CC(=O)Nc1ccc(CNc2nc(NCCN(C)C)nc3cc(-c4ccccc4)sc23)cc1` here?
Answer: inconclusive: 29.1 µM [cytotoxic, single point]

Question: Which “activity change, negative = cytotoxic” value does the source give for `CCn1c(C(=O)N2CCC(C(=O)NCCCOC)CC2)cc2sccc21` here?
Answer: inactive: -3.65%

Question: With `CC(C)CN=c1cc(-c2ccccc2)oc2ccc(Cl)cc12` as the molecule, how does the Potency read?
Answer: inconclusive: 20.6 µM [cytotoxic, partial curve, poor fit]

Question: Which Potency does the source give for `CCCCNc1c(-c2ccc(SC(C)CC)cc2)nc2cnccn12` (configuration not stated) here?
Answer: inconclusive: 29.1 µM [cytotoxic, single point]

Question: With `COc1ccc(NC(=O)C2Cc3c(-c4ccccc4)ccnc3O2)cc1OC` (configuration not stated) as the molecule, how does the Potency read?
Answer: active: 16.4 µM

Question: With `O=C(CNC(=O)c1ccccc1)OCc1nnc(-c2ccccc2)o1` as the molecule, how does the Potency read?
Answer: inconclusive: 29.1 µM [rising, single point]

Question: Which Potency does the source give for `NC(=O)c1sc2nc(-c3ccco3)ccc2c1N` here?
Answer: inconclusive: 18.4 µM [cytotoxic, partial curve, poor fit]

Question: Which Potency does the source give for `CCn1c2ccccc2c2cc(/C=N/NC(=O)c3ccc(O)cc3)ccc21` here?
Answer: inconclusive: 23.1 µM [cytotoxic, single point]

Question: Which Potency does the source give for `CC(C)C[C@H]1CNC(=S)N1CC1CCCN1C[C@H](CC(C)C)N1C[C@H](CC(C)C)N(CCc2ccccc2)C1=S` (some centres not stated) here?
Answer: inconclusive: 32.6 µM [cytotoxic, single point]

Question: With `N=c1n(CCO)c2ccccc2n1CCOc1ccc(Cl)cc1Cl` as the molecule, how does the Potency read?
Answer: inconclusive: 16.4 µM [cytotoxic, single point]

Question: With `O=C(NCCc1nc2ccccc2[nH]1)/C(=C/c1ccc2c(c1)OCO2)NC(=O)c1ccccc1Cl` as the molecule, how does the “activity change, negative = cytotoxic” value read?
Answer: inactive: 15.9%

Question: For `O=C(c1nc(-c2ccccc2)n(-c2ccccc2)n1)N1CCN(S(=O)(=O)c2ccccc2)CC1`, which “activity change, negative = cytotoxic” value is on record?
Answer: inactive: 0.28%

Question: With `CCCCNc1c(-c2ccc(SC(C)CC)cc2)nc2ccccn12` (configuration not stated) as the molecule, how does the Potency read?
Answer: active: 18.4 µM

Question: Which activity change, negative = cytotoxic does the source give for `COc1ccc(OC)c(C(c2nnnn2CC2CCCO2)N2CCN(C3CCCC3)CC2)c1` (configuration not stated) here?
Answer: inconclusive: -16.7%

Question: For `COc1cccc(NC(=O)c2ccc(OC(F)(F)F)cc2)c1`, which Potency is on record?
Answer: inconclusive: 29.1 µM [cytotoxic, single point]

Question: With `NC(Cc1ccc(Cl)cc1)c1csc(NC(=O)Nc2ccccc2-c2ccccc2)n1` (configuration not stated) as the molecule, how does the Potency read?
Answer: inconclusive: 23.1 µM [cytotoxic, single point]

Question: With `Cc1nc(NS(=O)(=O)c2ccccc2)sc1C(=O)NN` as the molecule, how does the Potency read?
Answer: inconclusive: 29.1 µM [cytotoxic, single point]

Question: Which “activity change, negative = cytotoxic” value does the source give for `COc1ccc(C(=O)Nc2ccc3c(c2)nc(CCNC(C)=O)n3C)cc1` here?
Answer: inactive: 11.9%

Question: With `Cc1ccccc1Cn1cc(NC(=O)c2cc(C3CC3)on2)cn1` as the molecule, how does the Potency read?
Answer: inconclusive: 20.6 µM [cytotoxic, single point]

Question: For `CS(=O)(=O)N(CC(=O)N/N=C/c1cc2c(cc1Br)OCO2)c1ccccc1Br`, which Potency is on record?
Answer: inconclusive: 29.1 µM [cytotoxic, single point]

Question: With `O=C(Nc1ccn(Cc2ccccc2F)n1)c1ccc(COc2ccc(Br)cc2)cc1` as the molecule, how does the Potency read?
Answer: inconclusive: 29.1 µM [cytotoxic, single point]

Question: For `CCc1nc(Nc2ccc(N3CCN(C(C)=O)CC3)cc2)c2oc3ccccc3c2n1`, which Potency is on record?
Answer: inconclusive: 29.1 µM [cytotoxic, single point]

Question: Which Potency does the source give for `CC(C)NC(=O)C1(C)CCCCN1Cc1ccc(OCc2ccccc2)cc1` (configuration not stated) here?
Answer: active: 16.4 µM

Question: For `Fc1ccc(OCc2nc(-c3cccs3)no2)cc1`, which Potency is on record?
Answer: inconclusive: 29.1 µM [cytotoxic, single point]

Question: Which “activity change, negative = cytotoxic” value does the source give for `O=C(Nc1cc(Cl)ccc1Cl)c1cc(S(=O)(=O)N2CCCc3ccccc32)ccc1F` here?
Answer: inactive: -22.3%

Question: For `CCn1cc(C(=O)NCc2cccs2)c(=O)c2cc(S(=O)(=O)N3CCOCC3)ccc21`, which Potency is on record?
Answer: inconclusive: 18.4 µM [rising, partial curve, poor fit]

Question: With `CCCc1n(CC(O)COC2CCCCC2)c2ccccc2[n+]1C` (configuration not stated) as the molecule, how does the activity change, negative = cytotoxic read?
Answer: inconclusive: -38.7% [cytotoxic]

Question: With `COc1ccc(NC2CCCN(C(=O)c3cc(C)nc4cc(F)ccc34)C2)cc1` (configuration not stated) as the molecule, how does the Potency read?
Answer: inconclusive: 16.4 µM [cytotoxic, single point]

Question: With `O=C(CCc1ccc(O)cc1)NN=Cc1cc(Br)ccc1O` as the molecule, how does the Potency read?
Answer: inconclusive: 7.31 µM [cytotoxic, partial curve, poor fit]

Question: Which Potency does the source give for `Cc1sc2ncnc(N3CCC(C(=O)Nc4ccc(Br)cc4Br)CC3)c2c1C` here?
Answer: inconclusive: 23.1 µM [cytotoxic, partial curve]

Question: With `COc1ccc(SC[C@H](C)CN2CC[C@H](NC(=O)OCc3ccccc3)CCC2=O)cc1` as the molecule, how does the Potency read?
Answer: active: 14.6 µM

Question: With `CC(=O)Nc1ccc(NC(=O)CSc2nnc(-c3cc4ccccc4o3)n2C)cc1` as the molecule, how does the Potency read?
Answer: inconclusive: 23.1 µM [rising, single point]

Question: With `O=C(O)c1ccccc1Nc1ccnc(Cl)n1` as the molecule, how does the Potency read?
Answer: inconclusive: 23.1 µM [cytotoxic, partial curve]

Question: For `Cc1cc2n(n1)CCC(=O)N2Cc1ccc(C(=O)Nc2ccc(Br)c(C)c2)cc1`, which Potency is on record?
Answer: inconclusive: 23.1 µM [cytotoxic, partial curve, poor fit]

Question: With `CCc1c(C(=O)N/N=C/c2ccc(OCc3ccc(F)cc3)c(OC)c2)nnn1-c1nonc1N` as the molecule, how does the Potency read?
Answer: inconclusive: 20.6 µM [cytotoxic, single point]

Question: For `Cc1ccc(CN2CC(=O)N3[C@H]4c5ccccc5OC[C@@H]4[C@H](c4ccccc4)[C@]3(C)C2=O)cc1`, which Potency is on record?
Answer: inconclusive: 18.4 µM [cytotoxic, single point]

Question: Which “activity change, negative = cytotoxic” value does the source give for `Cc1ccc(-n2nc(C(=O)Nc3cccc(C#N)c3)c3c4ccccc4n(C)c3c2=O)cc1` here?
Answer: inactive: 14%

Question: Which Potency does the source give for `CCCn1c2c(c(O)c(C(=O)NCCCN(CC)CC)c1=O)CCCC2` here?
Answer: inconclusive: 20.6 µM [cytotoxic, single point]

Question: Which “activity change, negative = cytotoxic” value does the source give for `O=C1CCc2ccccc2N1Cc1ccccc1` here?
Answer: inactive: -5.01%

Question: With `COCCNC(=O)c1ccccc1NC(=O)CSc1ccc(C)cc1` as the molecule, how does the “activity change, negative = cytotoxic” value read?
Answer: inactive: 8.07%

Question: Which “activity change, negative = cytotoxic” value does the source give for `O=S(=O)(Nc1cccc(-c2ccc(N3CCOCC3)nn2)c1)c1ccccc1C(F)(F)F` here?
Answer: inactive: -3.58%

Question: With `CCN(CC)c1cc2c(cc1F)c(=O)c(S(=O)(=O)c1ccc(C)cc1)cn2Cc1ccc(F)cc1` as the molecule, how does the “activity change, negative = cytotoxic” value read?
Answer: inactive: 0.219%

Question: Which Potency does the source give for `COc1ccc(-n2c(-c3ccccc3)cc3c2CCCC3=O)cc1` here?
Answer: inconclusive: 23.1 µM [cytotoxic, single point]

Question: Which “activity change, negative = cytotoxic” value does the source give for `CC(=O)c1cccc(NC(=O)c2ccc(CN3CCc4ccccc4C3)cc2)c1` here?
Answer: inactive: -7.72%

Question: For `COc1ccc2nc(SCC(=O)N3CC(=O)Nc4ccccc43)c(C#N)cc2c1`, which Potency is on record?
Answer: active: 2.59 µM

Question: With `O=C(NCCc1ccc(Cl)cc1)c1nc(-c2cccc(F)c2)n2c1CCCCC2` as the molecule, how does the “activity change, negative = cytotoxic” value read?
Answer: inactive: -2.59%

Question: Which “activity change, negative = cytotoxic” value does the source give for `CC(C)NC(=O)NC(=O)COC(=O)c1c2c(nc3ccccc13)CCC2` here?
Answer: inactive: 1.7%
